Results published in patent US11274124B2, “Tubulysin analogues as anticancer agents and payloads for antibody-drug conjugates and methods of treatment therewith” (William Marsh Rice University, priority 2017, dated 2022).
Some entries share one result that the patent states for a list of compounds.

System: MES SA, MES SA DX and HEK 293T cells
Test: In vitro cytotoxicity assay, structure-activity discussion over the cell lines tested
Conditions: refers to Tables 2 and 3

Q: `COC(=O)[C@H](C[C@H](Cc1ccccc1)NC(=O)c1csc([C@@H](C[C@H](C(C)C)N(C)C(=O)[C@@H](NC(=O)[C@H]2CCCCN2C)C(C)C)OC(C)=O)n1)N(C)C` [Tb117, Methyl (2S)-4-{[(2-{1-acetoxy-4-methyl-3-[methyl(3-methyl-2-{[(1-methylpiperidin-2-yl)carbonyl]-amino}butanoyl)amino]pentyl}-1,3-thiazol-4-yl)carbonyl]amino}-2-(dimethylamino)-5-phenylpentanoate] was tested. Which “cytotoxicity potency (in words, structure-activity discussion)” value (shortened to “cytotoxicity potency”) did it give?
A: Its value is “high potencies”.

Q: For `COC(=O)C(CC(Cc1ccccc1)NC(=O)c1csc([C@@H](CC(C(C)C)N(C)C(=O)[C@@H](NC(=O)[C@H]2CCCCN2C)C(C)C)OC(C)=O)n1)NC(=O)OCc1ccccc1` (stereo in doubt) [Tb116, Methyl(2R,4R)-4-[({2-[(1R,3S)-1-acetoxy-4-methyl-3-{methyl[(2S)-3-methyl-2-{[(1-methylpiperidin-2-yl)carbonyl]amino}butanoyl]amino}pentyl]-1,3-thiazol-4-yl}carbonyl)amino]-2-{[(benzyloxy)carbonyl]amino}-5-phenylpentanoate], which “cytotoxicity potency” value is on record?
A: The value was “high potencies”.

Q: `COC(=O)[C@@H](CC(Cc1ccccc1)NC(=O)c1csc([C@@H](CC(C(C)C)N(C)C(=O)[C@@H](NC(=O)[C@H]2CCCCN2C)C(C)C)OC(C)=O)n1)NC(=O)OCc1ccccc1` (stereo in doubt) [Tb115, Methyl(2R,4R)-4-[({2-[(1R,3S)-1-acetoxy-4-methyl-3-{methyl[(2S)-3-methyl-2-{[(1-methylpiperidin-2-yl)carbonyl]amino}butanoyl]amino}pentyl]-1,3-thiazol-4-yl}carbonyl)amino]-2-{[(benzyloxy)carbonyl]amino}-5-phenylpentanoate] was tested. Which “cytotoxicity potency” value did it give?
A: The value was “high potencies”.

Q: Which “cytotoxicity potency” value does the source give for `CCN[C@@H](C[C@H](Cc1ccccc1)NC(=O)c1csc([C@@H](C[C@H](C(C)C)N(C)C(=O)[C@@H](NC(=O)[C@H]2CCCCN2C)C(C)C)OC(C)=O)n1)C(=O)OC` [Tb118, Methyl (2S)-4-{[(2-{1-acetoxy-4-methyl-3-[methyl(3-methyl-2-{[(1-methylpiperidin-2-yl)carbonyl]-amino}butanoyl)amino]pentyl}-1,3-thiazol-4-yl)carbonyl]amino}-2-(ethylamino)-5-phenylpentanoate] here?
A: The value was “high potencies”.
